Results taken from publication PMC5173324.
Results are given in words; binding and its absence hold for the method and conditions named. Binding calls can cover weak binding; strength is not graded here. For some of these results: Binding seen in cells or lysates may run through a third protein. For some of these results: Sequences can lack the tags named with a protein. One block for each binder: values may come before it.

Tests used:
[1] = molecular target: IP3R (endogenous, crude mitochondria fraction) (human (endogenous in HeLa)); assay: native gel or EMSA; 2D blue-native / SDS-PAGE of a digitonin-solubilised crude mitochondria fraction of HeLa cells; second dimension analysed by western blot
[2] = molecular target: VDAC (endogenous, crude mitochondria fraction) (human (endogenous in HeLa)); assay: as above
[3] = molecular target: GST-IP3R∆CD; assay: pull-down; 10 μg GST fusion protein incubated with lysates of transfected HeLa cells, TNE buffer, 4°C, glutathione-Sepharose 4B, elution with 20 mM glutathione, western blot; for HA-IRBIT also with co-expressed FLAG-Bcl2l10 and with 0, 1 or 10 µM IP3; only the target purified
[4] = molecular target: GST-IP3R∆CD; assay: pull-down; GST-IP3R∆CD on lysates of HeLa cells expressing HA-IRBIT S68A and FLAG-Bcl2l10 alone or in combination, TNE buffer, 4°C; only the target purified

binding [1]: binds
binding [2]: binds
B1: endogenous Bcl2l10 (protein, UniProt Q9HD36 1-204)
chain: MVDQLRERTTMADPLRERTELLLADYLGYCAREPGTPEPAPSTPEAAVLRSAAARLRQIHRSFFSAYLGYPGNRFELVALMADSVLSDSPGPTWGRVVTLVTFAGTLLERGPLVTARWKKWGFQPRLKEQEGDVARDCQRLVALLSSRLMGQHRAWLQAQGGWDGFCHFFRTPFPLAFWRKQLVQAFLSCLLTTAFIYLWTRLL

binding [3]: binds
binding [4]: binds
B2: FLAG-Bcl2l10 (protein, UniProt Q9HD36 1-204)
chain: B1 chain
